# Reference: the supplement of paper PMC6411743
# ± gives the standard deviation of the averaged measurements. This is one part of the list.
# Columns and labels:
# Assay in all cases: NP40-soluble protein abundance relative to vehicle (solubility fold change) (ratio); higher = more soluble protein in presence of GTP
# [1] = molecular target: T1, F5GX51 (UniProt Q9Y4F9)
# T1 sequence (whole entry): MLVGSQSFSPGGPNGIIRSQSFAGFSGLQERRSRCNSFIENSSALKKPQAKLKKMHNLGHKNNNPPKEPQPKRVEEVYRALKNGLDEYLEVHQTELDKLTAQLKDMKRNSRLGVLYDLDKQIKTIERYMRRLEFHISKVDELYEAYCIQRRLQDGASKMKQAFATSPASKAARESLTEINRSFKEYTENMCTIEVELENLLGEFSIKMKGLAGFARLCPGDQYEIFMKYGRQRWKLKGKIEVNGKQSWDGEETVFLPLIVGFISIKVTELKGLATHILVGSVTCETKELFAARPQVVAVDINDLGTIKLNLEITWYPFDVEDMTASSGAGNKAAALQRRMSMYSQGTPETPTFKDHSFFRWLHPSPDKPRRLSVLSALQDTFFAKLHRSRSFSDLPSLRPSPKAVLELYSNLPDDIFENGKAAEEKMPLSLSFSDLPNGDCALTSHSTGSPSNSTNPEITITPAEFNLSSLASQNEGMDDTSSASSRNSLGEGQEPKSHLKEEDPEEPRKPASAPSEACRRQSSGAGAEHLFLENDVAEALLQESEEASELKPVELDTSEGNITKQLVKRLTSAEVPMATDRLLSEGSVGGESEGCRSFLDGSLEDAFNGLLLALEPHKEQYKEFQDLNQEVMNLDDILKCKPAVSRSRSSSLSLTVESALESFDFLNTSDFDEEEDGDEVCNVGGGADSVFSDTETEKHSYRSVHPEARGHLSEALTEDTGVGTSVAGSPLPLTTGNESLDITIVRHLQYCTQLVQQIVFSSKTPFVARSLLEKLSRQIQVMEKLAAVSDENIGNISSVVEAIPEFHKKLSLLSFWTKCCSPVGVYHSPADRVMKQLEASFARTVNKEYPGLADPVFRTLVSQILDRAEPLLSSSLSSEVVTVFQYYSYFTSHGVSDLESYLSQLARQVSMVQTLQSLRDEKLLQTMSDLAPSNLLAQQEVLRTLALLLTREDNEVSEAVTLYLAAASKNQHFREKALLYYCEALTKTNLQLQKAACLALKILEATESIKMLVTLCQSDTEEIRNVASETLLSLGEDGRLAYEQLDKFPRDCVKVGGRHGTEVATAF
# How it was run: (§1)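 Across three independent experiments, values are fold changes against the detergent-processed vehicle for each replicate, based on vsn-normalised intensities. The samples were Jurkat crude lysate treated with eight concentrations (0.1 to 10 mM) for 10 min at room temperature and then 3 min at 37 °C. Lysate was solubilised with 0.8% NP40 and benzonase, ultracentrifuged, and the supernatant analysed by TMT-labelled LC-MS/MS.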
# [2] = molecular target: T2, F5GYG5 and related entries (UniProt Q9Y3B8)
# T2 sequence (whole entry): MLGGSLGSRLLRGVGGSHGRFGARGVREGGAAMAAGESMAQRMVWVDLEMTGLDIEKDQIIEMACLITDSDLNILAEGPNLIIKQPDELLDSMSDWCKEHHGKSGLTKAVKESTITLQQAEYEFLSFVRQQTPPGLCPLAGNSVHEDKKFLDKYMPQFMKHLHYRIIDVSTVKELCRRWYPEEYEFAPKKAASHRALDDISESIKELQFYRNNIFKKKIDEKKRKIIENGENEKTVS
# How it was run: as §1
# [3] = molecular target: T3, F5H2B9 and related entries (UniProt Q9BZF9)
# T3 sequence (whole entry): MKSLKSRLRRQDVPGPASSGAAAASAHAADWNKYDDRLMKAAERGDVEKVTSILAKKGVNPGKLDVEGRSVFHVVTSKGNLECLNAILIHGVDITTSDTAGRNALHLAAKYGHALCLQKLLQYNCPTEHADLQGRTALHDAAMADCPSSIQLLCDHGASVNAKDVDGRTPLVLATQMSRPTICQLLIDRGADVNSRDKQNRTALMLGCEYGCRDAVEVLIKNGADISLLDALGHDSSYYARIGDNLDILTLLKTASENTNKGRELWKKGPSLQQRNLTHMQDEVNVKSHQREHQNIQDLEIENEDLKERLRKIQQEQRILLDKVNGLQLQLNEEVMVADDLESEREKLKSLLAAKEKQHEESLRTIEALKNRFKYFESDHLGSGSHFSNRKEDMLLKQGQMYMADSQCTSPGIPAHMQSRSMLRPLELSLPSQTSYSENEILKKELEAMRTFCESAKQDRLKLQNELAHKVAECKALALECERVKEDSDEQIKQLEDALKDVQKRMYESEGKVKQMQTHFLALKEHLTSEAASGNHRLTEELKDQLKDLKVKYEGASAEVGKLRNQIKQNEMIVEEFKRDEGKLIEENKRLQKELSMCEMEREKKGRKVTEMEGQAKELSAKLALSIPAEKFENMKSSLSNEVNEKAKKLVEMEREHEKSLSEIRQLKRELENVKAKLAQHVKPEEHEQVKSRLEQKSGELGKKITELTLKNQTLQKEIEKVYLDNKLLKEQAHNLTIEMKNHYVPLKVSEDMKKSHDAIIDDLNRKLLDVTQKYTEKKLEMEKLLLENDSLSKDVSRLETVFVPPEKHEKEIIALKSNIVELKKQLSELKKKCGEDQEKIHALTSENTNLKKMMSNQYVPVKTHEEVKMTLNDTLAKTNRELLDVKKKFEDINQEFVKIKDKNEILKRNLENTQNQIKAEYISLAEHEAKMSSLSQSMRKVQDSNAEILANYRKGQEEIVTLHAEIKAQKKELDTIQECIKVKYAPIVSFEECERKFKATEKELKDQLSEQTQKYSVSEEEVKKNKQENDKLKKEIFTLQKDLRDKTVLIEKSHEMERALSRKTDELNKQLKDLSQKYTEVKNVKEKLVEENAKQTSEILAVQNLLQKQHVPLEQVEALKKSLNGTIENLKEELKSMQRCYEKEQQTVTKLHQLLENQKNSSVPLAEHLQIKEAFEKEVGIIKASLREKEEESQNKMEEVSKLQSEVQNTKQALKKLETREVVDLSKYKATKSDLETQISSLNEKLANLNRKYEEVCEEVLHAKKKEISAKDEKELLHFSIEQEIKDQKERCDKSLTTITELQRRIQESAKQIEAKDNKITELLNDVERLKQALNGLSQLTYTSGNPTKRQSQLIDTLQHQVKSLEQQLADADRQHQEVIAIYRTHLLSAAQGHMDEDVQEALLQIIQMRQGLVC
# How it was run: as §1
# [4] = molecular target: T4, F5H658 (UniProt Q14562)
# T4 sequence (whole entry): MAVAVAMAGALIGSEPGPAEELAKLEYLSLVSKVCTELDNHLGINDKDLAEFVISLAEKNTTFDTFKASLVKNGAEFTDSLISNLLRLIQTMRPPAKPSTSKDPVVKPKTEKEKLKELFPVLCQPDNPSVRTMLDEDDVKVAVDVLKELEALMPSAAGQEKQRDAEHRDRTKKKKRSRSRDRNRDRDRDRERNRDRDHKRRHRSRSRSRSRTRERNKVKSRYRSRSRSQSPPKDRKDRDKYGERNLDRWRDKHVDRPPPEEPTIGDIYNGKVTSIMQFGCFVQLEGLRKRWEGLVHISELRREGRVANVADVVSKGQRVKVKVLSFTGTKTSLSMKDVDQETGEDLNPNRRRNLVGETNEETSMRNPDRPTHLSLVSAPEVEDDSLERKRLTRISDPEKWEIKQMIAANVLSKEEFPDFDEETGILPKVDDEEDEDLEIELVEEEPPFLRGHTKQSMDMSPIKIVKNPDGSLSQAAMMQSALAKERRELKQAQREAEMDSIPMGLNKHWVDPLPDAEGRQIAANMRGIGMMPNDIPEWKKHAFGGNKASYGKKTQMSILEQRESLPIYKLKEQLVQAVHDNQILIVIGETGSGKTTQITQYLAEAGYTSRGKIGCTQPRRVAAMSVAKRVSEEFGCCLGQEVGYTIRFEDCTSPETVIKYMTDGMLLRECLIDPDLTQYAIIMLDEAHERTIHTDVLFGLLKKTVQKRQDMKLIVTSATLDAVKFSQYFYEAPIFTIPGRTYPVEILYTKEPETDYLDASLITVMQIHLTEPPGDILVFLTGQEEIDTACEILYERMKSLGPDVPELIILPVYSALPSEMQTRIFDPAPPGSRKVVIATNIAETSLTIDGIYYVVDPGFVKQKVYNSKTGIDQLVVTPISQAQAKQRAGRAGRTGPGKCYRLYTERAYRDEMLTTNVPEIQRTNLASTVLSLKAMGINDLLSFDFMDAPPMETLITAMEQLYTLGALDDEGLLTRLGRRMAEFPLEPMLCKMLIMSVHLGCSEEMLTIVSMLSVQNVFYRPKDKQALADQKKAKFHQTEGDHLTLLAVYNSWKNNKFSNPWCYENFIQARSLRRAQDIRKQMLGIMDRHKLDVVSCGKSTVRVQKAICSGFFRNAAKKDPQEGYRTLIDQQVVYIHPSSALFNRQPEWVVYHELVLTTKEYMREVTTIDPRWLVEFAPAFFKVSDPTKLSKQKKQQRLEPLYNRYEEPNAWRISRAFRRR
# How it was run: as §1
# [5] = molecular target: T5, F5H7W8 and related entries (UniProt Q96C57)
# T5 sequence (whole entry): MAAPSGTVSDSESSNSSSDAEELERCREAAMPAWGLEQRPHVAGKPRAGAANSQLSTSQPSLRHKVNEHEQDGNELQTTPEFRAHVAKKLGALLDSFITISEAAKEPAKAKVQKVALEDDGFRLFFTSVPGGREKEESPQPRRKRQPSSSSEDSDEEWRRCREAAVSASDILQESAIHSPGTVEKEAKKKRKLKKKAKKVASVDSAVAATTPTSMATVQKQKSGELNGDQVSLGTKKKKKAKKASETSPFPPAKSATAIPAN
# How it was run: as §1
smiles,measurement,setting,value
Nc1nc2c(ncn2[C@@H]2O[C@H](COP(=O)(O)OP(=O)(O)OP(=O)(O)O)[C@@H](O)[C@H]2O)c(=O)[nH]1 [guanosine triphosphate],NP40-soluble protein abundance,[1]; concentration: 4mM,0.966 ± 0.066
same,NP40-soluble protein abundance,[1]; concentration: 6mM,0.969 ± 0.1
same,NP40-soluble protein abundance,[1]; concentration: 8mM,0.972 ± 0.045
same,NP40-soluble protein abundance,[1]; concentration: 10mM,0.968 ± 0.073
same,NP40-soluble protein abundance,[2]; concentration: 0.1mM,0.889 ± 0.045
same,NP40-soluble protein abundance,[2]; concentration: 0.5mM,0.832 ± 0.036
same,NP40-soluble protein abundance,[2]; concentration: 1mM,0.959 ± 0.053
same,NP40-soluble protein abundance,[2]; concentration: 2mM,0.903 ± 0.032
same,NP40-soluble protein abundance,[2]; concentration: 4mM,0.878 ± 0.041
same,NP40-soluble protein abundance,[2]; concentration: 6mM,0.916 ± 0.049
same,NP40-soluble protein abundance,[2]; concentration: 8mM,0.856 ± 0.11
same,NP40-soluble protein abundance,[2]; concentration: 10mM,0.876 ± 0.038
same,NP40-soluble protein abundance,[3]; concentration: 0.1mM,0.959 ± 0.099
same,NP40-soluble protein abundance,[3]; concentration: 0.5mM,0.951 ± 0.073
same,NP40-soluble protein abundance,[3]; concentration: 1mM,0.992 ± 0.18
same,NP40-soluble protein abundance,[3]; concentration: 2mM,0.926 ± 0.12
same,NP40-soluble protein abundance,[3]; concentration: 4mM,0.961 ± 0.22
same,NP40-soluble protein abundance,[3]; concentration: 6mM,0.961 ± 0.13
same,NP40-soluble protein abundance,[3]; concentration: 8mM,1.03 ± 0.19
same,NP40-soluble protein abundance,[3]; concentration: 10mM,0.941 ± 0.071
same,NP40-soluble protein abundance,[4]; concentration: 0.1mM,1.1 ± 0.2
same,NP40-soluble protein abundance,[4]; concentration: 0.5mM,1.11 ± 0.15
same,NP40-soluble protein abundance,[4]; concentration: 1mM,1.12 ± 0.17
same,NP40-soluble protein abundance,[4]; concentration: 2mM,1.13 ± 0.18
same,NP40-soluble protein abundance,[4]; concentration: 4mM,1.18 ± 0.21
same,NP40-soluble protein abundance,[4]; concentration: 6mM,1.2 ± 0.16
same,NP40-soluble protein abundance,[4]; concentration: 8mM,1.19 ± 0.24
same,NP40-soluble protein abundance,[4]; concentration: 10mM,1.17 ± 0.2
same,NP40-soluble protein abundance,[5]; concentration: 0.1mM,0.909 ± 0.065
same,NP40-soluble protein abundance,[5]; concentration: 0.5mM,1 ± 0.14

# At a glance, part of the list above.
smiles,measurement,setting,value
Nc1nc2c(ncn2[C@@H]2O[C@H](COP(=O)(O)OP(=O)(O)OP(=O)(O)O)[C@@H](O)[C@H]2O)c(=O)[nH]1 [guanosine triphosphate],NP40-soluble protein abundance,[2]; concentration: 2mM,0.903 ± 0.032
same,NP40-soluble protein abundance,[2]; concentration: 4mM,0.878 ± 0.041
